# Earlier results, collected in patent US11998642B2 (priority 2011, dated 2024).
# Some results were stated once for a whole list of compounds, not compound by compound.
# Settings: cited from earlier work
substance,measurement,value
fluo-4,kon for Ca^2+ binding,10^7-10^8 M^−1 s^−1
